Reference: US20210205365A1, “Chimeric Growth Factor Receptors” (Instil Bio (UK) Ltd., priority 2018, published 2021)

Test system: Jurkat E6.1 cells
Assay: Expression of CrGFR in transduced Jurkat E6.1 cells (anti-CD110-PE flow cytometry)
Format: cell-based, human
Settings: Jurkat E6.1 cells infected with lentiviral particles, analysed after 48 h

Row | Molecule | expression of CrGFR (PE conjugated anti-CD110 antibody)
1 | TpoR.SLAM: SEQ ID NO: 5; TpoR fused to SLAM cytoplasmic domain (protein, TpoR.SLAM; MISC_FEATURE (1)..(491): TpoR Extraceullular Domain; MISC_FEATURE (492)..(513): TpoR Transmembrane Domain; MISC_FEATURE (514)..(635): TpoR Cytoplasmic Domain; MISC_FEATURE (636)..(710): SLAM Cytoplasmic Domain) MPSWALFMVTSCLLLAPQNLAQVSSQDVSLLASDSEPLKCFSRTFEDLTCFWDEEEAAPSGTYQLLYAYPREKPRACPLSSQSMPHFGTRYVCQFPDQEEVRLFFPLHLWVKNVFLNQTRTQRVLFVDSVGLPAPPSIIKAMGGSQPGELQISWEEPAPEISDFLRYELRYGPRDPKNSTGPTVIQLIATETCCPALQRPHSASALDQSPCAQPTMPWQDGPKQTSPSREASALTAEGGSCLISGLQPGNSYWLQLRSEPDGISLGGSWGSWSLPVTVDLPGDAVALGLQCFTLDLKNVTCQWQQQDHASSQGFFYHSRARCCPRDRYPIWENCEEEEKTNPGLQTPQFSRCHFKSRNDSIIHILVEVTTAPGTVHSYLGSPFWIHQAVRLPTPNLHWREISSGHLELEWQHPSSWAAQETCYQLRYTGEGHQDWKVLEPPLGARGGTLELRPRSRYRLQLRARLNGPTYQGPWSSWSDPTRVETATETAWISLVTALHLVLGLSAVLGLLLLRWQFPAHYRRLRHALWPSLPDLHRVLGQYLRDTAALSPPKATVSDTCEEVEPSLLEILPKSSERTPLPLCSSQAQMDYRRLQPSCLGTMPLSVCPPMAESGSCCTTHIANHSYLPLSYWQQPRRRGKTNHYQTTVEKKSLTIYAQVQKPGPLQKKLDSFPAQDPCTTIYVAATEPVPESVQETNSITVYASVTLPES | low expression profile
2 | TpoR.TIAF1: SEQ ID NO: 8; TpoR fused to TIAF1 cytoplasmic domain (protein, TpoR-TIAF1; MISC_FEATURE (1)..(491): TpoR Extracellular Domain; MISC_FEATURE (492)..(513): TpoR Transmembrane Domain; MISC_FEATURE (514)..(635): TpoR Cytoplasmic Domain; MISC_FEATURE (636)..(750): TIAF1 Cytoplasmic Domain) MPSWALFMVTSCLLLAPQNLAQVSSQDVSLLASDSEPLKCFSRTFEDLTCFWDEEEAAPSGTYQLLYAYPREKPRACPLSSQSMPHFGTRYVCQFPDQEEVRLFFPLHLWVKNVFLNQTRTQRVLFVDSVGLPAPPSIIKAMGGSQPGELQISWEEPAPEISDFLRYELRYGPRDPKNSTGPTVIQLIATETCCPALQRPHSASALDQSPCAQPTMPWQDGPKQTSPSREASALTAEGGSCLISGLQPGNSYWLQLRSEPDGISLGGSWGSWSLPVTVDLPGDAVALGLQCFTLDLKNVTCQWQQQDHASSQGFFYHSRARCCPRDRYPIWENCEEEEKTNPGLQTPQFSRCHFKSRNDSIIHILVEVTTAPGTVHSYLGSPFWIHQAVRLPTPNLHWREISSGHLELEWQHPSSWAAQETCYQLRYTGEGHQDWKVLEPPLGARGGTLELRPRSRYRLQLRARLNGPTYQGPWSSWSDPTRVETATETAWISLVTALHLVLGLSAVLGLLLLRWQFPAHYRRLRHALWPSLPDLHRVLGQYLRDTAALSPPKATVSDTCEEVEPSLLEILPKSSERTPLPLCSSQAQMDYRRLQPSCLGTMPLSVCPPMAESGSCCTTHIANHSYLPLSYWQQPMSSPSSPFREQSFLCAAGDAGEESRVQVLKNEVRRGSPVLLGWVEQAYADKCVCGPSAPPAPTPPSLSQRVMCNDLFKVNPFQLQQFRADPSTASLLLCPGGLDHKLNLRGKAWG | low expression profile
3 | TpoR.IL2rβ-cyt.TpoR-cyt: SEQ ID NO: 4; TpoR EC and TM, IL2rB cytoplasmic domain, N-terminally truncated TpoR cytoplasmic domain (protein, TpoR.IL2rB-cyt.TpoR-cyt; MISC_FEATURE (1)..(491): TpoR Extracellular Domain; MISC_FEATURE (492)..(513): TpoR Transmembrane Domain; MISC_FEATURE (514)..(709): IL2rB Cytoplasmic Domain; MISC_FEATURE (710)..(808): TpoR Cytoplasmic Domain with N-terminal Truncation) MPSWALFMVTSCLLLAPQNLAQVSSQDVSLLASDSEPLKCFSRTFEDLTCFWDEEEAAPSGTYQLLYAYPREKPRACPLSSQSMPHFGTRYVCQFPDQEEVRLFFPLHLWVKNVFLNQTRTQRVLFVDSVGLPAPPSIIKAMGGSQPGELQISWEEPAPEISDFLRYELRYGPRDPKNSTGPTVIQLIATETCCPALQRPHSASALDQSPCAQPTMPWQDGPKQTSPSREASALTAEGGSCLISGLQPGNSYWLQLRSEPDGISLGGSWGSWSLPVTVDLPGDAVALGLQCFTLDLKNVTCQWQQQDHASSQGFFYHSRARCCPRDRYPIWENCEEEEKTNPGLQTPQFSRCHFKSRNDSIIHILVEVTTAPGTVHSYLGSPFWIHQAVRLPTPNLHWREISSGHLELEWQHPSSWAAQETCYQLRYTGEGHQDWKVLEPPLGARGGTLELRPRSRYRLQLRARLNGPTYQGPWSSWSDPTRVETATETAWISLVTALHLVLGLSAVLGLLLLNCRNTGPWLKKVLKCNTPDPSKFFSQLSSEHGGDVQKWLSSPFPSSSFSPGGLAPEISPLEVLERDKVTQLLLQQDKVPEPASLSSNHSLTSCFTNQGYFFFHLPDALEIEACQVYFTYDPYSEEDPDEGVAGAPTGSSPQPLQPLSGEDDAYCTFPSRDDLLLFSPSLLGGPSPPSTAPGGSGAGEERMPPSLQERVLGQYLRDTAALSPPKATVSDTCEEVEPSLLEILPKSSERTPLPLCSSQAQMDYRRLQPSCLGTMPLSVCPPMAESGSCCTTHIANHSYLPLSYWQQP | low expression profile
